Values quoted from earlier work as cited in patent US5945417A, “Heterocyclic compounds, their preparation and use” (priority 1995, dated 1999).
At least one compound was matched to its structure with a doubt left.

Tests used:
control BHK cells = conditions: 1 mM quisqualate or glutamate
[1] = system: metabotropic glutamate receptors; conditions: literature

## N[C@@H](CCC(=O)O)C(=O)O [L-glutamate]
Control BHK cells
  stimulation in control BHK cells: no stimulation
[1]
  action on the metabotropic glutamate receptors: non-selective agonists
